Experimental data reported in publication PMC9492542, “Brain-restricted mTOR inhibition with binary pharmacology” (Nature, 2022).
Values joined by “and” are separate entries in the source; they are usually repeats but may differ in a detail not shown here. Identical values can stand only once. The source gives many values for each of these; only a part stands here.

Tested on: K562 CRISPRi cells
Test: Cell viability assay (CellTiter-Glo, 72 h) in K562 CRISPRi cells with sgRNA knockdown of FKBP12

For `CO[C@H]1C[C@@H]2CC[C@@H](C)[C@@](O)(O2)C(=O)C(=O)N2CCCC[C@H]2C(=O)O[C@H]([C@H](C)C[C@@H]2CC[C@@H](OCCOCc3cn(CCOCCOCCOCCOCCOCCOCCOCCOCCC(=O)NCCCCn4nc(-c5ccc6oc(N)nc6c5)c5c(N)ncnc54)nn3)[C@H](OC)C2)CC(=O)[C@H](C)/C=C(\C)[C@@H](O)[C@@H](OC)C(=O)[C@H](C)C[C@H](C)/C=C/C=C/C=C/1C` [RapaLink-1], the “cell growth (K562-dCas9-KRAB)” value (FKBP12 sgRNA-1, 0.137174 nM) was 99.8702 and 102.584 and 89.7276, the “cell growth (K562-dCas9-KRAB)” value (FKBP12 sgRNA-1, 0.411523 nM) was 100.065 and 102.132 and 87.7639 and the “cell growth (K562-dCas9-KRAB)” value (FKBP12 sgRNA-2, 0.411523 nM) was 99.1685 and 99.5332 and 97.8158. The “cell growth (K562-dCas9-KRAB)” value (GAL4-4 sgRNA, 0.137174 nM) was 99.0845 and 97.6857, the “cell growth (K562-dCas9-KRAB)” value (GAL4-4 sgRNA, 0.411523 nM) was 99.3099 and 96.9455 and 97.4187 and the “cell growth (K562-dCas9-KRAB)” value (No sgRNA + 10 μM FK506, 0.411523 nM) was 91.6598 and 92.3631 and 90.5953. The “cell growth (K562-dCas9-KRAB)” value (No sgRNA, 0.411523 nM) was 98.7043 and 98.0688 and 98.468.
